# Laboratory results: the supplement of paper PMC12823440, “Inhibitors supercharge kinase turnover through native proteolytic circuits” (Nature, 2025)
# Amino acid sequences for entries named in this document (tags omitted). A change or cut given only in a name is not applied to a line headed by its entry.
# UniProt Q13555: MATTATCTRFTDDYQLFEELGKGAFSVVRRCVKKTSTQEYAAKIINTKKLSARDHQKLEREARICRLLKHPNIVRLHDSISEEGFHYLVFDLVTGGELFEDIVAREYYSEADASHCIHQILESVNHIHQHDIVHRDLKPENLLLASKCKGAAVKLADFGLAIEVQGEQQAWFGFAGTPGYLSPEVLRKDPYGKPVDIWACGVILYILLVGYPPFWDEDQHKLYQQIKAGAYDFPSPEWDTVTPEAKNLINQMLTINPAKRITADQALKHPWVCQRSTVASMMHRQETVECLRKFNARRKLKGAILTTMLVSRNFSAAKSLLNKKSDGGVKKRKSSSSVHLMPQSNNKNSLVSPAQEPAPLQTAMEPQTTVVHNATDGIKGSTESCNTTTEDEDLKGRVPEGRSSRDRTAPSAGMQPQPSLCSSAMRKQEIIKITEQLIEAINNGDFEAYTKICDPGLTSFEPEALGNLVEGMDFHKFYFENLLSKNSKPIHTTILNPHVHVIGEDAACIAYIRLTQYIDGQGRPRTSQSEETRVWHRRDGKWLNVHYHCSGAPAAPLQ
# UniProt Q15131: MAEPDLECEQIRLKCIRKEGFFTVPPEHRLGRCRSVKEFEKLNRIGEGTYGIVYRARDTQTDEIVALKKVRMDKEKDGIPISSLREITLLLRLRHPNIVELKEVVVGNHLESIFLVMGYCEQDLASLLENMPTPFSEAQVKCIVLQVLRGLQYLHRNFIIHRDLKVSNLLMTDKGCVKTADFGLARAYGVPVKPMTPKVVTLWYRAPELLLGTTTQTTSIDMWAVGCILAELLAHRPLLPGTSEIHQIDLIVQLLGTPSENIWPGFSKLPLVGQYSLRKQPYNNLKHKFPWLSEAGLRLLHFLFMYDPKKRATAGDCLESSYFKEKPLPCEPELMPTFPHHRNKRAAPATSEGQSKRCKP
# Some of the results follow. The calls rarely recur for the same compound in another form.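 Kinases were expressed as nanoluciferase fusions in K562 cells and luminescence was read every 4 h between 2 and 18 h as percent of control, DMSO set to 100% and a positive control to 0%. A time point counts as decreased when the signal drops significantly (2 sigma). The hit call is the authors' own, does not follow from the count of time points alone, and its rule is not shown.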
# Biological target: CAMK2G (UniProt Q13555)
# Assay: kinase-Nluc reporter destabilization hit call (1 = scored as downregulated) (binary); higher = compound decreases kinase abundance
# Details: K562; 2-18 h
row,Structure (SMILES),kinase-Nluc reporter destabilization hit call
1,O=c1cc(O)c2ccccc2o1 [4-Hydroxycoumarin] (10 µM),inactive: 0
2,CCCCNc1nc(N)c2[nH]c(=O)n(Cc3ccc(C)nc3)c2n1 (10 µM),inactive: 0
3,CCCS(=O)(=O)Nc1ccc(F)c(-n2cc(-c3cncnc3)c3nc(N(C)C4CCN(CC)CC4)ccc32)c1F (2 µM),inactive: 0
4,C[C@H]1CC[C@]2(NC1)O[C@H]1C[C@H]3[C@@H]4CC[C@H]5C[C@@H](O[C@@H]6O[C@H](CO)[C@H](O[C@@H]7O[C@H](CO)[C@@H](O)[C@H](O[C@@H]8OC[C@@H](O)[C@H](O)[C@H]8O)[C@H]7O[C@@H]7O[C@H](CO)[C@@H](O)[C@H](O)[C@H]7O)[C@H](O)[C@H]6O)CC[C@]5(C)[C@H]4CC[C@]3(C)[C@H]1[C@@H]2C [Tomatine] (2.5 µM),inactive: 0
5,Cc1n[nH]cc1-c1cc2nc([C@@H]3CC4CCN3CC4)[nH]c(=O)c2s1 [Simurosertib] (2.5 µM),inactive: 0
6,O=Cc1cn(Cc2ccc(Cl)cc2)c2ccccc12 [Oncrasin-1] (10 µM),inactive: 0
7,CC(=O)OC(C)(C)/C=C/C(=O)[C@](C)(O)[C@H]1[C@H](O)C[C@@]2(C)[C@@H]3CC=C4[C@@H](C=C(O)C(=O)C4(C)C)[C@]3(C)C(=O)C[C@]12C [Cucurbitacin E] (2.5 µM),inactive: 0
8,C[C@@H]1CC[C@H]2[C@@H](C)C(=O)O[C@@H]3O[C@@]4(C)CC[C@@H]1[C@]32OO4 [Artemisinin] (10 µM),inactive: 0
9,COc1ccc2c(c1)/C(=C/c1cnc[nH]1)C(=O)N2 (2.5 µM),inactive: 0
10,CC(=O)O[C@H]1[C@H]2[C@@H](OC(=O)Cc3ccccc3)[C@@H](C)C[C@]2(OC(C)=O)C(=O)/C(C)=C/[C@@H]2[C@H](CC[C@@]13CO3)C2(C)C [Euphorbiasteroid] (10 µM),inactive: 0
11,O=c1[nH]c2ccccc2n1C1CCN(CCCC(c2ccc(F)cc2)c2ccc(F)cc2)CC1 [Pimozide] (2.5 µM),inactive: 0
12,CC(=O)Oc1ccc(/C=C/c2cc(OC(C)=O)cc(OC(C)=O)c2)cc1 [Triacetylresveratrol] (10 µM),inactive: 0
13,C/C=C(/C)C(=O)O[C@H]1[C@@H]2[C@H](C)C(=O)O[C@@H]2C[C@@H](C)[C@@H]2C=CC(=O)[C@]21C [Brevilin A] (2.5 µM),inactive: 0
14,O=[N+]([O-])/C=C/c1ccc2c(c1)OCO2 (2.5 µM),inactive: 0
15,O=C(O)c1nn(Cc2ccc(Cl)cc2Cl)c2ccccc12 [Lonidamine] (10 µM),inactive: 0
16,CC(=O)c1c(O)c(C)c(O)c(Cc2c(O)c3c(c(C(=O)/C=C/c4ccccc4)c2O)OC(C)(C)C=C3)c1O [Rottlerin] (2 µM),inactive: 0
17,Cn1cc(C2=C(c3cn(C4CCN(Cc5ccccn5)CC4)c4ccccc34)C(=O)NC2=O)c2ccccc21 [Enzastaurin] (10 µM),inactive: 0
18,Cc1ccccc1-n1c(Cn2ncc3c(N)ncnc32)nc2cccc(C)c2c1=O (10 µM),inactive: 0
19,O=c1[nH]c2ccccc2n1C1CCN(Cc2ccc(-c3[nH]c4cc5ncnc5cc4nc3-c3ccccc3)cc2)CC1 [AKT inhibitor VIII] (2.5 µM),inactive: 0
20,C=CC(=O)Nc1ccc2[nH]c(=O)n(C3CCN(Cc4ccc(-c5nc6cc[nH]c(=O)c6cc5-c5ccccc5)cc4)CC3)c2c1 [Borussertib] (10 µM),inactive: 0
21,C[S+]([O-])/C=C/CCN=C=S (stereo not drawn) [Sulforaphene] (10 µM),inactive: 0
22,CC1=C[C@]23C(=O)[C@@H](C=C(CO)[C@@H](O)[C@]2(O)[C@H]1O)[C@H]1[C@@H](C[C@H]3C)C1(C)C [Ingenol] (10 µM),inactive: 0
23,CCCCCCCCCCCCCCCCOC[C@H](COP(=O)([O-])OCC[N+](C)(C)C)OC(C)=O (10 µM),inactive: 0
24,Cc1ccccc1-n1c(Cn2cnc3c(N)ncnc32)nc2cccc(C)c2c1=O (10 µM),inactive: 0
25,COc1ccc2c(c1)[nH]c1c(C)nccc12 [Harmine] (10 µM),inactive: 0
26,O=C(N[C@@H](COc1ccc2[nH]c(=O)[nH]c2c1)c1ccccc1)c1cccn(Cc2ccc(F)c(F)c2)c1=O (2.5 µM),inactive: 0
27,COc1cc2c(cc1F)C(c1ccccc1Cl)=Nc1c(n[nH]c1C)N2 (0.5 µM),inactive: 0
28,N#CC(C#N)=Cc1ccc(O)c(O)c1 [Tyrphostin 23] (10 µM),inactive: 0
29,N#CC(C#N)=NNc1cccc(Cl)c1 (2.5 µM),inactive: 0

# Biological target: CDK10 (UniProt Q15131)
# Assay: as above
# Details: K562; 2-18 h
row,Structure (SMILES),kinase-Nluc reporter destabilization hit call
1,O=c1cc(O)c2ccccc2o1 [4-Hydroxycoumarin] (10 µM),inactive: 0
2,CCCCNc1nc(N)c2[nH]c(=O)n(Cc3ccc(C)nc3)c2n1 (10 µM),inactive: 0
3,CCCS(=O)(=O)Nc1ccc(F)c(-n2cc(-c3cncnc3)c3nc(N(C)C4CCN(CC)CC4)ccc32)c1F (2 µM),inactive: 0
4,C[C@H]1CC[C@]2(NC1)O[C@H]1C[C@H]3[C@@H]4CC[C@H]5C[C@@H](O[C@@H]6O[C@H](CO)[C@H](O[C@@H]7O[C@H](CO)[C@@H](O)[C@H](O[C@@H]8OC[C@@H](O)[C@H](O)[C@H]8O)[C@H]7O[C@@H]7O[C@H](CO)[C@@H](O)[C@H](O)[C@H]7O)[C@H](O)[C@H]6O)CC[C@]5(C)[C@H]4CC[C@]3(C)[C@H]1[C@@H]2C [Tomatine] (2.5 µM),inactive: 0
5,Cc1n[nH]cc1-c1cc2nc([C@@H]3CC4CCN3CC4)[nH]c(=O)c2s1 [Simurosertib] (2.5 µM),inactive: 0
6,O=Cc1cn(Cc2ccc(Cl)cc2)c2ccccc12 [Oncrasin-1] (10 µM),inactive: 0
7,CC(=O)OC(C)(C)/C=C/C(=O)[C@](C)(O)[C@H]1[C@H](O)C[C@@]2(C)[C@@H]3CC=C4[C@@H](C=C(O)C(=O)C4(C)C)[C@]3(C)C(=O)C[C@]12C [Cucurbitacin E] (2.5 µM),inactive: 0
8,C[C@@H]1CC[C@H]2[C@@H](C)C(=O)O[C@@H]3O[C@@]4(C)CC[C@@H]1[C@]32OO4 [Artemisinin] (10 µM),inactive: 0
9,COc1ccc2c(c1)/C(=C/c1cnc[nH]1)C(=O)N2 (2.5 µM),inactive: 0
10,CC(=O)O[C@H]1[C@H]2[C@@H](OC(=O)Cc3ccccc3)[C@@H](C)C[C@]2(OC(C)=O)C(=O)/C(C)=C/[C@@H]2[C@H](CC[C@@]13CO3)C2(C)C [Euphorbiasteroid] (10 µM),inactive: 0
11,O=c1[nH]c2ccccc2n1C1CCN(CCCC(c2ccc(F)cc2)c2ccc(F)cc2)CC1 [Pimozide] (2.5 µM),inactive: 0
12,CC(=O)Oc1ccc(/C=C/c2cc(OC(C)=O)cc(OC(C)=O)c2)cc1 [Triacetylresveratrol] (10 µM),inactive: 0
13,C/C=C(/C)C(=O)O[C@H]1[C@@H]2[C@H](C)C(=O)O[C@@H]2C[C@@H](C)[C@@H]2C=CC(=O)[C@]21C [Brevilin A] (2.5 µM),inactive: 0
14,O=[N+]([O-])/C=C/c1ccc2c(c1)OCO2 (2.5 µM),inactive: 0
15,O=C(O)c1nn(Cc2ccc(Cl)cc2Cl)c2ccccc12 [Lonidamine] (10 µM),inactive: 0
16,CC(=O)c1c(O)c(C)c(O)c(Cc2c(O)c3c(c(C(=O)/C=C/c4ccccc4)c2O)OC(C)(C)C=C3)c1O [Rottlerin] (2 µM),inactive: 0
17,Cn1cc(C2=C(c3cn(C4CCN(Cc5ccccn5)CC4)c4ccccc34)C(=O)NC2=O)c2ccccc21 [Enzastaurin] (10 µM),inactive: 0
18,Cc1ccccc1-n1c(Cn2ncc3c(N)ncnc32)nc2cccc(C)c2c1=O (10 µM),inactive: 0
19,O=c1[nH]c2ccccc2n1C1CCN(Cc2ccc(-c3[nH]c4cc5ncnc5cc4nc3-c3ccccc3)cc2)CC1 [AKT inhibitor VIII] (2.5 µM),inactive: 0
20,C=CC(=O)Nc1ccc2[nH]c(=O)n(C3CCN(Cc4ccc(-c5nc6cc[nH]c(=O)c6cc5-c5ccccc5)cc4)CC3)c2c1 [Borussertib] (10 µM),inactive: 0
21,C[S+]([O-])/C=C/CCN=C=S (stereo not drawn) [Sulforaphene] (10 µM),inactive: 0
22,CC1=C[C@]23C(=O)[C@@H](C=C(CO)[C@@H](O)[C@]2(O)[C@H]1O)[C@H]1[C@@H](C[C@H]3C)C1(C)C [Ingenol] (10 µM),inactive: 0
23,CCCCCCCCCCCCCCCCOC[C@H](COP(=O)([O-])OCC[N+](C)(C)C)OC(C)=O (10 µM),inactive: 0
24,Cc1ccccc1-n1c(Cn2cnc3c(N)ncnc32)nc2cccc(C)c2c1=O (10 µM),inactive: 0
25,COc1ccc2c(c1)[nH]c1c(C)nccc12 [Harmine] (10 µM),inactive: 0
26,O=C(N[C@@H](COc1ccc2[nH]c(=O)[nH]c2c1)c1ccccc1)c1cccn(Cc2ccc(F)c(F)c2)c1=O (2.5 µM),inactive: 0
27,COc1cc2c(cc1F)C(c1ccccc1Cl)=Nc1c(n[nH]c1C)N2 (0.5 µM),inactive: 0
28,N#CC(C#N)=Cc1ccc(O)c(O)c1 [Tyrphostin 23] (10 µM),inactive: 0
29,N#CC(C#N)=NNc1cccc(Cl)c1 (2.5 µM),inactive: 0
